# The list shows a part of the results.
# Sequences of proteins named here, by UniProt entry; tags and fusion partners are left off. A change or cut given only in a name is not applied to a line headed by its entry.
# UniProt Q9BZL4: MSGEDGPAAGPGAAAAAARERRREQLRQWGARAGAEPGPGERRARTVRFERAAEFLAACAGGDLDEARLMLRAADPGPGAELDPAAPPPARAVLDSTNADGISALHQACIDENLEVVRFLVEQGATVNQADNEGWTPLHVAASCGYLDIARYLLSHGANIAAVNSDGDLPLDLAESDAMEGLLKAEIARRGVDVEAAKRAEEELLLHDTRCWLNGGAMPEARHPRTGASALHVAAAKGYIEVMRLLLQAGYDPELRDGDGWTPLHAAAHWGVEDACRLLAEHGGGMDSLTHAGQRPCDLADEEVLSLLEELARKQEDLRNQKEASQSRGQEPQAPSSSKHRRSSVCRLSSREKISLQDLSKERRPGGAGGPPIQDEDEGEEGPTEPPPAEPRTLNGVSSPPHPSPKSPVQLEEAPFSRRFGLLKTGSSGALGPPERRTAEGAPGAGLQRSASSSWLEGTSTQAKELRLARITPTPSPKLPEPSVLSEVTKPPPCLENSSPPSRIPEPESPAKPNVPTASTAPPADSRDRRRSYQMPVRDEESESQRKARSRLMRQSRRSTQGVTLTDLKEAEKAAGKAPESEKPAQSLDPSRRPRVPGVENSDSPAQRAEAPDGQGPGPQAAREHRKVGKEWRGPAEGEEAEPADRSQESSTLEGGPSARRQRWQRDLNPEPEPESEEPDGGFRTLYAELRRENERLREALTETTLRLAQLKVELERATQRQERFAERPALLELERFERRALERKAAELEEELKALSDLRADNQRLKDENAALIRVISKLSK
# UniProt Q9Y478: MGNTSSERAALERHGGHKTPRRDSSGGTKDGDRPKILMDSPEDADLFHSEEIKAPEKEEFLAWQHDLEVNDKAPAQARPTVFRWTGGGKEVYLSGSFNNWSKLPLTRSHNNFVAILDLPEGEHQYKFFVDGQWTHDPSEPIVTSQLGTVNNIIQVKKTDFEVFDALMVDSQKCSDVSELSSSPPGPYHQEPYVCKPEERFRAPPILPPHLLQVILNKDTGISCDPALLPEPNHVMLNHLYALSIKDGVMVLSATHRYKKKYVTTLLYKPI
# UniProt Q6ZMI0: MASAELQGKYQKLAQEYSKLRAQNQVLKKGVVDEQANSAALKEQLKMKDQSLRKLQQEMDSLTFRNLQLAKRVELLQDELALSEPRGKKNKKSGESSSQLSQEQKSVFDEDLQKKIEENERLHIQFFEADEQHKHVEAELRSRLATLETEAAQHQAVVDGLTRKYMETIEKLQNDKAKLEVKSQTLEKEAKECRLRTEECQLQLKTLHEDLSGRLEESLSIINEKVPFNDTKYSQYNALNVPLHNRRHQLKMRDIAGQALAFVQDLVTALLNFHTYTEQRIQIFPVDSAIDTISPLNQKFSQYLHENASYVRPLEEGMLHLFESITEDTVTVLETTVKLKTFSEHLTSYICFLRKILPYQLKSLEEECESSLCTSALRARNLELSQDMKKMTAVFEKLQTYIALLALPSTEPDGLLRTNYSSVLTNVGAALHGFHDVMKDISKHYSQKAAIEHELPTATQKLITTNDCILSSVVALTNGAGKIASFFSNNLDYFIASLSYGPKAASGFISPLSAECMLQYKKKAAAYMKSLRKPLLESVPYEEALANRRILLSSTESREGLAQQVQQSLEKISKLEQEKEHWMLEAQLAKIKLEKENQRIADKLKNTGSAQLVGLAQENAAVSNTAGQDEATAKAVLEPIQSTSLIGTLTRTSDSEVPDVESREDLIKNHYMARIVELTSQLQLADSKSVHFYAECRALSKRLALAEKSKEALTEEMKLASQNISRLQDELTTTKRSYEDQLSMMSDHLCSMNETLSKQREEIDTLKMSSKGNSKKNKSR
# UniProt Q8WWY3: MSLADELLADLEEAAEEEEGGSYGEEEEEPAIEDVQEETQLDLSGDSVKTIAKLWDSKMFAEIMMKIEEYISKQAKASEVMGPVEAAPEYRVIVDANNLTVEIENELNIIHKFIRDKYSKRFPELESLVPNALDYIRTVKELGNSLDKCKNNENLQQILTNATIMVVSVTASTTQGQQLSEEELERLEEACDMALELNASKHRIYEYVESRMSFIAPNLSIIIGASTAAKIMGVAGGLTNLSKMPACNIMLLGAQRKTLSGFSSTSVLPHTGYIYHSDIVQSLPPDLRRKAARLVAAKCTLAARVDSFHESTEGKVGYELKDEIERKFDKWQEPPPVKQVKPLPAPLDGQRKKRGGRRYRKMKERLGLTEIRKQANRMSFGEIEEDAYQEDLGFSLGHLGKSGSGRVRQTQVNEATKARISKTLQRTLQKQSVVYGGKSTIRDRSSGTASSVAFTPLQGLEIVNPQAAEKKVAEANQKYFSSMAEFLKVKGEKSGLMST
# UniProt Q13523: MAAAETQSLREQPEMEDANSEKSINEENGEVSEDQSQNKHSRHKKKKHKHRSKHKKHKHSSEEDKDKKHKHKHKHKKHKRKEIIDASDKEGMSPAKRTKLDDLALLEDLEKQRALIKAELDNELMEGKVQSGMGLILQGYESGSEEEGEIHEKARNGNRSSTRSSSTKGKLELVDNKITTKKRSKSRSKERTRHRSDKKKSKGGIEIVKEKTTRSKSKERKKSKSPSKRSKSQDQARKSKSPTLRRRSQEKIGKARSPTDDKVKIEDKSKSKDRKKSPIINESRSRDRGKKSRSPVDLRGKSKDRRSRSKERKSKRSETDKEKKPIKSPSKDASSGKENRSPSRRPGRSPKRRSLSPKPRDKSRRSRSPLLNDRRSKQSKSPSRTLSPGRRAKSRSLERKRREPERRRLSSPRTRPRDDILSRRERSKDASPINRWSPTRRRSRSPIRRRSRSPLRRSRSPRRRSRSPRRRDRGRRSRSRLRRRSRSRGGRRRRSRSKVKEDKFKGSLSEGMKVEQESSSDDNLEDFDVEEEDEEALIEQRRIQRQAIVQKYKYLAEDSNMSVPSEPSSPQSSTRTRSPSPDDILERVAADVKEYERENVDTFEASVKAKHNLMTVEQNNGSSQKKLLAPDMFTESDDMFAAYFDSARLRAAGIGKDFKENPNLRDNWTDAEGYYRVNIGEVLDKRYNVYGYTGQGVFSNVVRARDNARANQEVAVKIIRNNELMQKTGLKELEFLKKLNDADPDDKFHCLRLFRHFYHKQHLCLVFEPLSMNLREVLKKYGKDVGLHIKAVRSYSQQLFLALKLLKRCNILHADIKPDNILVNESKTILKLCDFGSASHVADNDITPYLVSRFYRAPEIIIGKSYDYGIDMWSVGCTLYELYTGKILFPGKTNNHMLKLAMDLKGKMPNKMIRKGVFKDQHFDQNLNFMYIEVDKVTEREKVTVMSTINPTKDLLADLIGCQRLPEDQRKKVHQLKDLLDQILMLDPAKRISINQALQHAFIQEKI
# UniProt Q12972: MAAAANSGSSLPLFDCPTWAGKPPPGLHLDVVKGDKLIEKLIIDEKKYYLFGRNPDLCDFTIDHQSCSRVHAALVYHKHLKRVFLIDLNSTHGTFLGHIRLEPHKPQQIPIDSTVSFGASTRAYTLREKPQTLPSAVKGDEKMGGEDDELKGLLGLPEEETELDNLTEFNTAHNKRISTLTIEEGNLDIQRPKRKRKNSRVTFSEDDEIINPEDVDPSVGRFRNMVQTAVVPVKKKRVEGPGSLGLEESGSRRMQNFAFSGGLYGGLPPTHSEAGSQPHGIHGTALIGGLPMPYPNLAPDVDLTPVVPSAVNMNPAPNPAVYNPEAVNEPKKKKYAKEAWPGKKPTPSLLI
# UniProt P30044: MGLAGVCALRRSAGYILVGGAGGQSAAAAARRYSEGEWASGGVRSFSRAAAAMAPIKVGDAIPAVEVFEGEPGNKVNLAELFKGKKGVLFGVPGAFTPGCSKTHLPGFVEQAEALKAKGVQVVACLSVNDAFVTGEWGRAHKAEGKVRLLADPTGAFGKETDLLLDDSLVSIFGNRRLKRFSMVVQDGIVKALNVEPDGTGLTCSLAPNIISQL
# UniProt P30154, whole entry, looked up: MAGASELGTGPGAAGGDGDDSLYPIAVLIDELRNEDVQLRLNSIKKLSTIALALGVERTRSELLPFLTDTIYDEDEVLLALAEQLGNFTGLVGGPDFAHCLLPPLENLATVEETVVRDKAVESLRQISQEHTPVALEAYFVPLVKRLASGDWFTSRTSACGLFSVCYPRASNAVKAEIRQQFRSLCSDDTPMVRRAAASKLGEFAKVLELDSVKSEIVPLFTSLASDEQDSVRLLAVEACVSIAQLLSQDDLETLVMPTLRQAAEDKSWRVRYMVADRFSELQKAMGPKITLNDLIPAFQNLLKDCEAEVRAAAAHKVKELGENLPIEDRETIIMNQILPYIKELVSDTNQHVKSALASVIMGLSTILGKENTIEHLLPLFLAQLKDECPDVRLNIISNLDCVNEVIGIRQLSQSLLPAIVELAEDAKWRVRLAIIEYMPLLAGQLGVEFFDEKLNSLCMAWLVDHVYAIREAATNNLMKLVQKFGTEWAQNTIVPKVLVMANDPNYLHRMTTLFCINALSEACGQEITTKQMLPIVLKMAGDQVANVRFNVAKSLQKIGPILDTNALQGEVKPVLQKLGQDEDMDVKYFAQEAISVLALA
# UniProt Q5MIZ7: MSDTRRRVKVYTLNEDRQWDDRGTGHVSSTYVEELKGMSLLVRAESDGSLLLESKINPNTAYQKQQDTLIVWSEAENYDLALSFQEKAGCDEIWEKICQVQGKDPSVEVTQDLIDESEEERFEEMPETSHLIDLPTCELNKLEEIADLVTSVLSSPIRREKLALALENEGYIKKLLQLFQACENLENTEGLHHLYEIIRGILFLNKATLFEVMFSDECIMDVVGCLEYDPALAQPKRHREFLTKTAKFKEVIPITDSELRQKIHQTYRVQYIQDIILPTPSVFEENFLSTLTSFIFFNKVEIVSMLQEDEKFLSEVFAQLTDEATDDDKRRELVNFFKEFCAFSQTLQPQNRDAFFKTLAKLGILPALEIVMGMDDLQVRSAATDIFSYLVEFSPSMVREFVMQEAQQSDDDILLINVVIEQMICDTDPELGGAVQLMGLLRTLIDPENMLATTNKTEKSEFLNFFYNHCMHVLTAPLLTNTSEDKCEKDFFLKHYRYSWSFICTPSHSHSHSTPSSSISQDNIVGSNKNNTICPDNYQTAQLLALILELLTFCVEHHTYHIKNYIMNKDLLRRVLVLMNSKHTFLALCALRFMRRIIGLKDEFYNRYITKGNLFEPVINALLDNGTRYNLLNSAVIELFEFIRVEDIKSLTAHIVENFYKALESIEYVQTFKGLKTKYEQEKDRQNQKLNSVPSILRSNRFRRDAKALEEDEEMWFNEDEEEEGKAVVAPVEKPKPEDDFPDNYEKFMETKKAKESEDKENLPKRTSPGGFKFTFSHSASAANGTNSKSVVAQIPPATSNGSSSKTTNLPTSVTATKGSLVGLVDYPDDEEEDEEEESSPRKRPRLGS
# UniProt O43663: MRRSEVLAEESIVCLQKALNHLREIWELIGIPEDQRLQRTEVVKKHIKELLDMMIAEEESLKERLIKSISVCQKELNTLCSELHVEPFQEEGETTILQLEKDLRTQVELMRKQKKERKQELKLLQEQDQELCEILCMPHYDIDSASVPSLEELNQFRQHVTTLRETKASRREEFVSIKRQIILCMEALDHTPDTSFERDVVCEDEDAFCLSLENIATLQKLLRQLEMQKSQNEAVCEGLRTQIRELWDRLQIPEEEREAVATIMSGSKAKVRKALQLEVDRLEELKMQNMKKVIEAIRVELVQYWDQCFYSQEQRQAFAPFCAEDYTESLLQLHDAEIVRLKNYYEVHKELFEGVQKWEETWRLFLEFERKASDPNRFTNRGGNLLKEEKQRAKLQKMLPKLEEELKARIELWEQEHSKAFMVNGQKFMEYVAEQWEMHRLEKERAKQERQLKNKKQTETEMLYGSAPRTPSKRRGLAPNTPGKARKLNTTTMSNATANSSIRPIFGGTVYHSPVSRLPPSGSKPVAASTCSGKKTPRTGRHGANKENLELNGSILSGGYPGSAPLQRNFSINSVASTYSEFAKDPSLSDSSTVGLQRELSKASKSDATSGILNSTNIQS
# UniProt P31323, whole entry, looked up: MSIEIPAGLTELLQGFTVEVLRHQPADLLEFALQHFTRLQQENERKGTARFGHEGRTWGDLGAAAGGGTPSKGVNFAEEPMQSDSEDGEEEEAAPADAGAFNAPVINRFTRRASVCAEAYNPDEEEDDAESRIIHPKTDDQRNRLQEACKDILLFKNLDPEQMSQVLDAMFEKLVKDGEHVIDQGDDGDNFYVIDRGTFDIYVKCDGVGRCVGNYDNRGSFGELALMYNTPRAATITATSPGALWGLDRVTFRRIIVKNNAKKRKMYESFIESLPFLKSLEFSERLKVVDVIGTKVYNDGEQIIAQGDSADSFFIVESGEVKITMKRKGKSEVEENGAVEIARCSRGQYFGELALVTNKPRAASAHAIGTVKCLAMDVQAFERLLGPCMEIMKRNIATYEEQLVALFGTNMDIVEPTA
# Columns and labels:
# Test in all cases: log2 fold change, soluble protein after heating vs DMSO (PISA); higher = thermal stabilisation; K562 lysate, 10 uM; active = over 0.2 and 3.5 SD of the protein, either way, in both replicates (recomputed)
# [1] = compound: C#Cc1cccc(Nc2ncnc3cc(OCCOC)c(OCCOC)cc23)c1 [erlotinib]
# How it was run: (§1)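 Following dounce homogenisation of K562 pellets in PBS pH 7.4 with 1 mM MgCl2, crude extract at 1 mg/mL protein was incubated for 30 min with 10 μM compound. Aliquots were then heated for 3 min over 48°C-58°C and pooled, NP-40 was added to 0.5% at 4°C, and soluble protein was recovered as the supernatant at 21,000xg for 90 min. Channel-sum-equalised TMTpro 16plex LC-MS/MS quantified this protein. Each value, from duplicates, is a log-two fold change in thermal stability relative to solvent controls.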
# [2] = compound: C/C(=N\NC(=O)C1=CC(=CC=C1)S(=O)(=O)N2CCOCC2)/C3=C(C=CC(=C3)Cl)O
# How it was run: as §1
# [3] = compound: C1=CC(=CC=C1C2=NC3=C(N2)C=C(C=C3)C(=O)N)OC4=CC=C(C=C4)Cl
# How it was run: as §1
# [4] = compound: C1=CC2=C(C=CC(=C2)/C=C\3/C(=O)NC(=NCC4=CC=CS4)S3)N=C1
# How it was run: as §1
# [5] = compound: C1=CC2=NC=CN=C2C=C1/C=C/3\C(=O)NC(=O)S3
# How it was run: as §1
# [6] = compound: C1=CC=C(C=C1)C2=NC(=C(N2)C3=CC=NC=C3)C4=CC(=C(C=C4)Cl)O
# How it was run: as §1
# [7] = compound: C1=CC=C2C(=C1)C3=NNC4=CC=CC(=C43)C2=O
# How it was run: as §1
# [8] = compound: C1CCN(C1)C(=O)NC2=CC=CC(=C2)NC3=NC=C(C(=N3)NCCC4=CN=CN4)Br
# How it was run: as §1
# [9] = compound: C1CN(CCC1(CC2=CC=C(C=C2)Cl)N)C3=NC=NC4=C3C=CN4
# How it was run: as §1
# [10] = compound: C1COCCN1CCN2C3=CC=CC=C3N=C2NC(=O)C4=CC(=CC=C4)[N+](=O)[O-] [IRAK-1-4 Inhibitor I]
# How it was run: as §1
# [11] = compound: C=CC(=O)N1CCC[C@@H](n2nc(-c3ccc(Oc4ccccc4)cc3)c3c(N)ncnc32)C1 [ibrutinib]
# How it was run: as §1
# [12] = compound: CC(=O)c1cnc2ccc(-c3cc(Cl)c(O)c(Cl)c3)nc2c1N[C@H]1CC[C@H](CN(C)C)CC1
# How it was run: as §1
# [13] = compound: CC(C)(C)Cn1c(N)nc2ccc(-c3[nH]c(C(C)(C)C)nc3-c3ccc(F)cc3)nc21 [ralimetinib]
# How it was run: as §1
# [14] = compound: CC(C)(O)CC(=O)NCCn1ccc2ncnc(Nc3ccc(Oc4cccc(C(F)(F)F)c4)c(Cl)c3)c21
# How it was run: as §1
# [15] = compound: CC(C)C1=C2N=C(C=C(N2N=C1)NCC3=CC=CC=C3)NCCCCCCN
# How it was run: as §1
# [16] = compound: CC1=C(C(CC(=O)N1)C2=CC=C(C=C2)C(F)(F)F)C(=O)NC3=C(C=C4C(=C3)C=NN4)F
# How it was run: as §1
# [17] = compound: CC1=C(C2=C(C=C1)C(=O)C3=CC=CC=C3N2CCCN)C
# How it was run: as §1
# [18] = compound: CC1=C(C=C(C=C1)NC(=O)C2=CC(=CC=C2)C(C)(C)C#N)NC3=CC4=C(C=C3)N=CN(C4=O)C
# How it was run: as §1
# [19] = compound: CC1=C(C=C(C=C1)NC(=O)C2=CC(=CC=C2)N(C)C)NC(=O)C3=CC=C(C=C3)O
# How it was run: as §1
# [20] = compound: CC1=CC=C(C=C1)SC2=C3C=C(SC3=CN=C2)C(=O)N
# How it was run: as §1
Target,log2 fold change [1],log2 fold change [2],log2 fold change [3],log2 fold change [4],log2 fold change [5],log2 fold change [6],log2 fold change [7],log2 fold change [8],log2 fold change [9],log2 fold change [10],log2 fold change [11],log2 fold change [12],log2 fold change [13],log2 fold change [14],log2 fold change [15],log2 fold change [16],log2 fold change [17],log2 fold change [18],log2 fold change [19],log2 fold change [20]
PPP1R12C isoform 4 (UniProt Q9BZL4),inactive: 0.061,inactive: -0.078,inactive: 0.037,inactive: -0.055,inactive: -0.021,inactive: 0,inactive: -0.009,inactive: 0.013,inactive: 0.007,inactive: -0.002,inactive: 0.022,inactive: -0.002,inactive: 0.016,inactive: -0.018,inactive: -0.002,inactive: 0.04,inactive: -0.028,inactive: 0.022,inactive: 0.001,inactive: -0.03
PROS1 (UniProt P07225),inactive: -0.008,inactive: -0.049,inactive: 0.021,inactive: 0,inactive: -0.021,inactive: -0.026,inactive: -0.006,inactive: 0,inactive: 0.054,inactive: -0.028,inactive: -0.014,inactive: -0.034,inactive: 0.052,inactive: 0.014,inactive: 0.007,inactive: 0.013,inactive: -0.003,inactive: 0.001,inactive: -0.023,inactive: -0.004
PRKAB1 (UniProt Q9Y478),inactive: 0.004,inactive: -0.01,inactive: 0.017,inactive: -0.02,inactive: 0.031,inactive: -0.005,inactive: 0.135,inactive: 0.166,inactive: 0.088,inactive: 0.067,inactive: -0.012,inactive: -0.011,inactive: -0.044,inactive: -0.051,inactive: -0.024,inactive: -0.002,inactive: 0.035,inactive: -0.015,inactive: -0.033,inactive: -0.044
PPP1R21 (UniProt Q6ZMI0),inactive: -0.001,inactive: 0,inactive: 0.01,inactive: 0.088,inactive: 0.017,inactive: -0.049,inactive: -0.105,inactive: -0.067,inactive: -0.06,inactive: 0.055,inactive: -0.015,inactive: -0.012,inactive: -0.023,inactive: -0.074,inactive: 0.011,inactive: -0.048,inactive: 0.013,inactive: 0.1,inactive: 0.011,inactive: 0.023
PRPF31 (UniProt Q8WWY3),inactive: -0.022,inactive: -0.053,inactive: -0.033,inactive: 0.013,inactive: -0.025,inactive: 0.046,inactive: 0.021,inactive: -0.068,inactive: -0.036,inactive: -0.072,inactive: 0.016,inactive: 0.008,inactive: 0.013,inactive: 0.054,inactive: 0.022,inactive: 0.016,inactive: -0.004,inactive: 0.008,inactive: -0.015,inactive: 0.035
PRPF4B (UniProt Q13523),inactive: 0.024,inactive: -0.01,inactive: -0.046,inactive: 0.113,inactive: 0.012,inactive: 0.013,inactive: 0.083,inactive: 0.008,inactive: 0.03,inactive: -0.025,inactive: 0.009,inactive: 0.002,inactive: -0.022,inactive: 0.008,inactive: -0.014,inactive: -0.047,inactive: -0.047,inactive: 0.011,inactive: -0.007,inactive: 0.019
PPP1R8 (UniProt Q12972),inactive: 0.002,inactive: -0.032,inactive: 0.029,inactive: 0.002,inactive: -0.012,inactive: 0.008,inactive: 0.007,inactive: -0.009,inactive: 0.02,inactive: 0.008,inactive: -0.029,inactive: -0.026,inactive: -0.039,inactive: -0.031,inactive: 0.011,inactive: -0.011,inactive: -0.034,inactive: 0.002,inactive: -0.036,inactive: -0.028
PRDX5 (UniProt P30044),inactive: -0.003,inactive: 0.028,inactive: -0.004,inactive: -0.014,inactive: -0.022,inactive: -0.005,inactive: -0.004,inactive: 0.026,inactive: 0.029,inactive: 0.015,inactive: 0.002,inactive: -0.01,inactive: 0.01,inactive: -0.02,inactive: -0.007,inactive: -0.027,inactive: 0.002,inactive: 0.02,inactive: -0.012,inactive: 0.003
PRPF40A (UniProt O75400),inactive: -0.011,inactive: -0.053,inactive: 0.06,inactive: 0.001,inactive: -0.043,inactive: -0.133,inactive: -0.034,inactive: -0.011,inactive: 0.011,inactive: 0.017,inactive: 0.083,inactive: 0.003,inactive: -0.016,inactive: -0.002,inactive: -0.008,inactive: 0.013,inactive: 0.005,inactive: -0.053,inactive: -0.017,inactive: 0.019
PPP1R18 (UniProt Q6NYC8),inactive: 0.012,inactive: -0.012,inactive: 0.006,inactive: -0.025,inactive: -0.019,inactive: 0.006,inactive: -0.045,inactive: -0.025,inactive: 0.033,inactive: -0.002,inactive: 0.018,inactive: 0.018,inactive: 0.008,inactive: -0.001,inactive: -0.023,inactive: 0.019,inactive: -0.001,inactive: 0.019,inactive: -0.007,inactive: -0.031
PPP2R1B isoform 2 (UniProt P30154),inactive: 0.019,inactive: -0.045,inactive: -0.04,inactive: -0.025,inactive: 0.009,inactive: -0.003,inactive: -0.057,inactive: -0.029,inactive: 0.013,inactive: -0.015,inactive: 0.011,inactive: 0.005,inactive: 0.012,inactive: -0.037,inactive: 0.024,inactive: 0.011,inactive: 0.006,inactive: 0.002,inactive: 0.028,inactive: -0.011
PPP4R3B (UniProt Q5MIZ7),inactive: 0.012,inactive: 0.033,inactive: -0.018,inactive: 0.05,inactive: 0.011,inactive: -0.018,inactive: 0.013,inactive: -0.002,inactive: 0.007,inactive: -0.009,inactive: 0.02,inactive: -0.037,inactive: 0.012,inactive: 0.023,inactive: -0.013,inactive: 0.008,inactive: 0.018,inactive: 0.024,inactive: 0.018,inactive: -0.011
PPP1R35 (UniProt Q8TAP8),inactive: 0.038,inactive: -0.02,inactive: 0.105,inactive: -0.012,inactive: 0.018,inactive: -0.023,inactive: 0.081,inactive: -0.015,inactive: 0.135,inactive: 0.275,inactive: 0.048,inactive: -0.033,inactive: -0.08,inactive: -0.102,inactive: -0.015,inactive: 0.018,inactive: 0.018,inactive: 0.004,inactive: 0.102,inactive: -0.02
PRC1 (UniProt O43663),inactive: 0.026,inactive: 0.027,inactive: 0.013,inactive: -0.026,inactive: -0.004,inactive: 0.059,inactive: -0.054,inactive: -0.011,inactive: 0.126,inactive: 0.008,inactive: -0.007,inactive: 0.009,inactive: -0.016,inactive: 0.01,inactive: 0.01,inactive: 0.039,inactive: -0.006,inactive: 0.025,inactive: 0.021,inactive: 0.059
PRKACB isoform 2 (UniProt P22694),inactive: -0.033,inactive: -0.03,inactive: -0.03,inactive: 0.04,inactive: -0.028,inactive: -0.019,inactive: 0.129,active: 0.352,active: 0.354,inactive: 0.009,inactive: -0.006,active: 0.693,inactive: 0.033,inactive: -0.03,inactive: -0.013,inactive: 0.025,inactive: -0.014,inactive: -0.037,inactive: 0.014,inactive: -0.024
PRKAR2B (UniProt P31323),inactive: 0,inactive: 0.066,inactive: -0.022,inactive: -0.025,inactive: 0.018,inactive: -0.03,inactive: -0.116,inactive: -0.16,inactive: -0.131,inactive: -0.016,inactive: -0.017,inactive: 0.008,inactive: 0.007,inactive: -0.01,inactive: 0.022,inactive: 0.015,inactive: -0.004,inactive: 0.027,inactive: 0.031,inactive: 0.03

# Some of the entries so far, tab-delimited.
Target	log2 fold change [1]	log2 fold change [2]	log2 fold change [3]	log2 fold change [4]	log2 fold change [5]	log2 fold change [6]	log2 fold change [7]	log2 fold change [8]	log2 fold change [9]	log2 fold change [10]	log2 fold change [11]	log2 fold change [12]	log2 fold change [13]	log2 fold change [14]	log2 fold change [15]	log2 fold change [16]	log2 fold change [17]	log2 fold change [18]	log2 fold change [19]	log2 fold change [20]
PROS1 (UniProt P07225)	inactive: -0.008	inactive: -0.049	inactive: 0.021	inactive: 0	inactive: -0.021	inactive: -0.026	inactive: -0.006	inactive: 0	inactive: 0.054	inactive: -0.028	inactive: -0.014	inactive: -0.034	inactive: 0.052	inactive: 0.014	inactive: 0.007	inactive: 0.013	inactive: -0.003	inactive: 0.001	inactive: -0.023	inactive: -0.004
PRKAB1 (UniProt Q9Y478)	inactive: 0.004	inactive: -0.01	inactive: 0.017	inactive: -0.02	inactive: 0.031	inactive: -0.005	inactive: 0.135	inactive: 0.166	inactive: 0.088	inactive: 0.067	inactive: -0.012	inactive: -0.011	inactive: -0.044	inactive: -0.051	inactive: -0.024	inactive: -0.002	inactive: 0.035	inactive: -0.015	inactive: -0.033	inactive: -0.044
PRPF31 (UniProt Q8WWY3)	inactive: -0.022	inactive: -0.053	inactive: -0.033	inactive: 0.013	inactive: -0.025	inactive: 0.046	inactive: 0.021	inactive: -0.068	inactive: -0.036	inactive: -0.072	inactive: 0.016	inactive: 0.008	inactive: 0.013	inactive: 0.054	inactive: 0.022	inactive: 0.016	inactive: -0.004	inactive: 0.008	inactive: -0.015	inactive: 0.035
PRC1 (UniProt O43663)	inactive: 0.026	inactive: 0.027	inactive: 0.013	inactive: -0.026	inactive: -0.004	inactive: 0.059	inactive: -0.054	inactive: -0.011	inactive: 0.126	inactive: 0.008	inactive: -0.007	inactive: 0.009	inactive: -0.016	inactive: 0.01	inactive: 0.01	inactive: 0.039	inactive: -0.006	inactive: 0.025	inactive: 0.021	inactive: 0.059

# Reference: the supplement of paper PMC10849652
